Reference: patent publication US4271152A (Akzo N.V., priority 1979, dated 1981)
*: point of attachment. Cbz = O=C(OCc1ccccc1)*; Boc = CC(C)(C)OC(=O)*; OtBu = CC(C)(C)O*

Test: general procedure: solution-phase peptide synthesis; DCCI/HOBt; azide method (IAN); ONp active esters
Conditions: coupling step, acetate

Row | Substance | step yield
1 | H-LVTL-OtBu | 77%
2 | H-GFMTSEKSQTPLVTL-OH | 78%
3 | Cbz-TSE(OtBu)K(Boc)-OMe | 61.9%
4 | H-SQTPLVTL-OtBu | 72%
5 | Boc-GFMTSE(OtBu)K(Boc)-OMe | 61%

Same assay, conditions: late stage modification step, acetate

Row | Substance | step yield
6 | Cbz-SQTP-OH | 90%
7 | H-SQTPLVTL-OtBu | 86%
8 | Boc-GFMTSE(OtBu)K(Boc)-OH | 80%
9 | H-TSE(OtBu)K(Boc)-OMe | 99%
